In PMC12520541:
Residue numbers refer to the chain shown, from its start. No constants are given. Whether binding was seen depends on the method and setting. Binding seen in cells or lysates may run through a third protein. Some binding calls cover weakened binding; strength is not graded here. For part of these data: Sequences can lack the tags named with a protein. Values belong to the substance of their own block, whether it stands above or below them.

By UniProt entry, the sequences of proteins in these tests, tags left out. Where a name states a change or a piece, a line headed by the entry shows the natural chain unless it says otherwise. Chains listed by the source or under a name are the forms on record and can include a tag or linker. Residues count along the entry.
His-GRP78 (mouse) (P20029, residues 20-655): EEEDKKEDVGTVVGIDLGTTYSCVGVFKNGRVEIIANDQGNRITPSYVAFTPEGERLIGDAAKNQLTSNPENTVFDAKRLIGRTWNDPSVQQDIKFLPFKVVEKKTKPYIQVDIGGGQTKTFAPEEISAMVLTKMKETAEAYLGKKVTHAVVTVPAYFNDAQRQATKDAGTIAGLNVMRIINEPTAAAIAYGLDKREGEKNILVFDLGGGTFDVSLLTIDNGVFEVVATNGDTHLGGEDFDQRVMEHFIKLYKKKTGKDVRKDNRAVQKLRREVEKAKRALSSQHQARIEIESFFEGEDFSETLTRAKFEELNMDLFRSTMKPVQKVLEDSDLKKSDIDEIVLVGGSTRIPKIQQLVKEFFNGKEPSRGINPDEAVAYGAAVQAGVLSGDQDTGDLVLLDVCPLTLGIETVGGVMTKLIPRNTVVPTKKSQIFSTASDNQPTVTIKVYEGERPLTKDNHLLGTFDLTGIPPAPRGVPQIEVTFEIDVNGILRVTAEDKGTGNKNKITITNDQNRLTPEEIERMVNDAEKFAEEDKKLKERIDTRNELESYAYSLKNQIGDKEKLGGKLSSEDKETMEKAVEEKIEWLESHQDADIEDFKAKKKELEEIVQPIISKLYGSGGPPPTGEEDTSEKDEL
His-GRP78-K327R (mouse) (P20029, form named): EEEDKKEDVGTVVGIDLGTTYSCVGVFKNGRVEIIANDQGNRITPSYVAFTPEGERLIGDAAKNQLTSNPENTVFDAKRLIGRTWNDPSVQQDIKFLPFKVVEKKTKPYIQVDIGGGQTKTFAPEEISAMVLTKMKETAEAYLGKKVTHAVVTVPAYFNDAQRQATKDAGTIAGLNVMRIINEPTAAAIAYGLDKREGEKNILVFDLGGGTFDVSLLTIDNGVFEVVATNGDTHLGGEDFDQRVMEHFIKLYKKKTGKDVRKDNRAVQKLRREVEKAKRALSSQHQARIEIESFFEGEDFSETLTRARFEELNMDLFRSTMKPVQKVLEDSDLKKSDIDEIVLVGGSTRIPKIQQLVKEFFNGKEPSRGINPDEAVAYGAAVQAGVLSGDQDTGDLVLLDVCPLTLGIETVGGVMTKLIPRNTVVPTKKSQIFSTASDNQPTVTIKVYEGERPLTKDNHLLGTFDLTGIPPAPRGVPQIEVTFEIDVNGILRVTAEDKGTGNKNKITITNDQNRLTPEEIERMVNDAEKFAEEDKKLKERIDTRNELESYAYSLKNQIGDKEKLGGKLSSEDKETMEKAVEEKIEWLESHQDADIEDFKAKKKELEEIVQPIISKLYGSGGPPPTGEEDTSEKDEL
UniProt P11021, residues 19-654: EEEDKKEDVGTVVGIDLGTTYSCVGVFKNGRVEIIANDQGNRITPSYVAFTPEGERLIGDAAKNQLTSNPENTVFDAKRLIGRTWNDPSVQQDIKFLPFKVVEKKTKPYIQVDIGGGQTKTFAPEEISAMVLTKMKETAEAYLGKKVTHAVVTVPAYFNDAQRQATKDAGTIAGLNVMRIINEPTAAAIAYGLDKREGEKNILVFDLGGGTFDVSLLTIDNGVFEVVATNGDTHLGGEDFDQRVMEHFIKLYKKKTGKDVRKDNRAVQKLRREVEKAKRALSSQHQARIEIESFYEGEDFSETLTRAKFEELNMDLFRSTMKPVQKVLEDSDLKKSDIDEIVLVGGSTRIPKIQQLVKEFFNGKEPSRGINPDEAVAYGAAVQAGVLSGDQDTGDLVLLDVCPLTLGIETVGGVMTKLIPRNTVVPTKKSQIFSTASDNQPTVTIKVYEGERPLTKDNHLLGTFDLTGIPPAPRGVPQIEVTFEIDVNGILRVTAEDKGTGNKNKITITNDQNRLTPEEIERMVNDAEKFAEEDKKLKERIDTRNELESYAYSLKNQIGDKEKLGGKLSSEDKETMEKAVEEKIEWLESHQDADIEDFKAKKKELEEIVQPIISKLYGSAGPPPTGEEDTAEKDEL

Legend:
[1] = biological target: T1, USP13, endogenous in mouse colon tissue (mouse (endogenous in colon tissue)) (UniProt Q5BKP2); assay: co-IP; endogenous proteins in lysates of colon tissues from DSS-treated mice; primary antibody overnight at 4 °C, protein A+G agarose beads, immunoblot
T1 sequence: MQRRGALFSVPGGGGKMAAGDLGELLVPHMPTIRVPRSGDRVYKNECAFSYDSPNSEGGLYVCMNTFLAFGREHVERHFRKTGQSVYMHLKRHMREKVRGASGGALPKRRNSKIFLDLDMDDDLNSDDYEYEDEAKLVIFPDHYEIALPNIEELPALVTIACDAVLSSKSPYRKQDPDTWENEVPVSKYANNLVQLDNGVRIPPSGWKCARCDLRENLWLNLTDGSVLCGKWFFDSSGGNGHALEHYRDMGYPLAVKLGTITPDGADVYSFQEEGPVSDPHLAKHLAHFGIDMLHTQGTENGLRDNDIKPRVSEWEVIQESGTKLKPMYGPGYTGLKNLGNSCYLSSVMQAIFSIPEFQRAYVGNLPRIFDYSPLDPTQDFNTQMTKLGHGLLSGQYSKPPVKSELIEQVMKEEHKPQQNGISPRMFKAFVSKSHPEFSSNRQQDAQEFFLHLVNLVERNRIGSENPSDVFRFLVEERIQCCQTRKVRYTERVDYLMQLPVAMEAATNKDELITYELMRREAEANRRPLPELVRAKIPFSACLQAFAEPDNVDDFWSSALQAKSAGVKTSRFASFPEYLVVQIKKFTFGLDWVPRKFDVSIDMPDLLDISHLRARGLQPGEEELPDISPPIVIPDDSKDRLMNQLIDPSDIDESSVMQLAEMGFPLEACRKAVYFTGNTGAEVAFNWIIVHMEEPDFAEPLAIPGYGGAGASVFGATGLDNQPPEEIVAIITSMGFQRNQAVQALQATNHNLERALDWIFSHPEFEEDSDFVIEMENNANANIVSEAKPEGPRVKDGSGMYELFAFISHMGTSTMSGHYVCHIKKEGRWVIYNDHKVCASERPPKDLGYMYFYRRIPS

[2] = biological target: T2, Flag-USP13 (WT), expressed in NIH/3T3 cells (not stated (human or mouse cDNA cloned)) (UniProt Q5BKP2); assay: co-IP; Figure S4H (legend not shown): USP13 with GRP78 WT or K327R from plasmids; cells and antibodies not stated
T2 sequence: T1 sequence

[3] = biological target: T2, Flag-USP13 (WT), expressed in NIH/3T3 cells (not stated (human or mouse cDNA cloned)); assay: co-IP; lysates of NIH/3T3 cells co-transfected with Flag-USP13 (WT) or USP13 (C343A) and His-GRP78; primary antibody overnight at 4 °C, protein A+G agarose beads, immunoblot
[4] = biological target: T3, USP13-C343A (mouse) (mouse) (UniProt Q5BKP2); assay: as above
T3 sequence: T1 sequence with C343A

[5] = biological target: T4, USP13, endogenous in NCM460 cells (human (endogenous in NCM460)) (UniProt Q92995); assay: co-IP; endogenous proteins in lysates of LPS-stimulated or tunicamycin-stimulated NCM460 cells; primary antibody overnight at 4 °C, protein A+G agarose beads, immunoblot
T4 sequence: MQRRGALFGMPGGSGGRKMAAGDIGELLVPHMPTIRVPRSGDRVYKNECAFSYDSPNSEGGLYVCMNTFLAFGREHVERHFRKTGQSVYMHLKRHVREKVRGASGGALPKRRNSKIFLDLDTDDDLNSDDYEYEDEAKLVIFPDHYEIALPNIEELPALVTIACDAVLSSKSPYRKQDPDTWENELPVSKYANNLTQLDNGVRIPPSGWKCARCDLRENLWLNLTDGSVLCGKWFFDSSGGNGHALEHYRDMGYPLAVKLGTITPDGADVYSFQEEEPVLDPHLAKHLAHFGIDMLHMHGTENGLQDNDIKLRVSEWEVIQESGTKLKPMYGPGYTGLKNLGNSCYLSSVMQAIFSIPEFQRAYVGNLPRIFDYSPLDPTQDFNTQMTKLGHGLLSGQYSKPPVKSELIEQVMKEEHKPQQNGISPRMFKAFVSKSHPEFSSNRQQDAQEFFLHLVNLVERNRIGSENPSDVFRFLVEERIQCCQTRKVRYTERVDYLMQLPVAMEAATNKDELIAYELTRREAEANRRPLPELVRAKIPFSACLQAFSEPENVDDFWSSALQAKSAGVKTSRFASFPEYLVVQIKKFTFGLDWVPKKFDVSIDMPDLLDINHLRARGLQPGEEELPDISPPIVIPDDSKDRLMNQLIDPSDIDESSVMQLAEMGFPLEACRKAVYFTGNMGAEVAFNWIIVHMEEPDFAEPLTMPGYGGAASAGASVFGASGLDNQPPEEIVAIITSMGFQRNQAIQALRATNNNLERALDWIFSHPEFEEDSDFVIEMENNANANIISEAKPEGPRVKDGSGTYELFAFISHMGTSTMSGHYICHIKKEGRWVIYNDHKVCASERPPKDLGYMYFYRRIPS

binding [1]: binds
Substance: GRP78, endogenous in mouse colon tissue (from UniProt P20029 20-655)

binding [2]: binds
binding [3]: binds
binding [4]: binds
Substance: His-GRP78 (mouse) (from UniProt P20029 20-655)

binding [2]: binds
Substance: His-GRP78-K327R (mouse) (from UniProt P20029 20-655)

binding [5]: binds
Substance: glucose-regulated protein 78 (GRP78), endogenous in NCM460 cells (from UniProt P11021 19-654)
